This data set deals with clinically stable subjects with schizophrenia. The experiment in a line: Phase 2a Clinical Study A: disposition of subjects and tolerability. The class given is in vivo, human. Particulars: 25 mg group; lowest completion rate. The text has this: A Phase 2a proof-of-concept (POC) study in clinically stable subjects with schizophrenia who were clinically stable and received stable doses of atypical antipsychotic therapy. The study was a Phase 2, multi-center, randomized, double-blind, placebo-controlled, parallel group study designed to evaluate the safety and efficacy of doses of (4s)-4-(5-phenyl-1,3,4-thiadiazol-2-yloxy)-1-azatricyclo[3.3.1.1^3,7]decane (Compound A) in clinically stable male and female subjects (ages 20 to 55, inclusive) with a Diagnostic and Statistical Manual of Mental Disorders—Fourth Edition, Text Revision (DSM-IV-TR) diagnosis of schizophrenia. Psychiatric diagnoses were confirmed using the Mini-International Neuropsychiatric Interview (MINI) version 6.0.0. The criteria for clinical stability was determined by a combination of retrospective data (over the 4 months prior to the start of Screening, which will be supported by clinical records, patient, identified responsible contact person, and physician interviews), and prospective data assessed during the Prospective Stabilization Period of 28 to 42 days duration. […]

As for `c1ccc(-c2nnc(O[C@@H]3C4CC5C[C@H]3C[N@](C5)C4)s2)cc1` [Compound A, (4s)-4-(5-phenyl-1,3,4-thiadiazol-2-yloxy)-1-azatricyclo[3.3.1.1^3,7]decane], the completion rate was determined as 73.1%.

Values taken from patent US20130317054A1, “NEURONAL NICOTINIC AGONIST AND METHODS OF USE” (ABBVIE INC., priority 2012, published 2013).
